Measurements from PMC5241866.
Results are given in words; binding and its absence hold for the method and conditions named. Binding seen in cells or lysates may run through a third protein. Some binding calls cover weakened binding; strength is not graded here.

By UniProt entry, the sequences of proteins in these tests, tags left out.
UniProt P10085: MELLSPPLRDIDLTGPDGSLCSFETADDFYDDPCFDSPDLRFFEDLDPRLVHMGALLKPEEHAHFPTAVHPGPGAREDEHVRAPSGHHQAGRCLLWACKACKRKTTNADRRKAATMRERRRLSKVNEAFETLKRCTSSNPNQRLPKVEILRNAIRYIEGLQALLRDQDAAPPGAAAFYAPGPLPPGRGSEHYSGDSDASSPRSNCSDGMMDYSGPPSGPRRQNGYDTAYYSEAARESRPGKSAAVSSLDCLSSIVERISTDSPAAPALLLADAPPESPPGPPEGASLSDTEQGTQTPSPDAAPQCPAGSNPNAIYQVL
UniProt Q6P9Z1: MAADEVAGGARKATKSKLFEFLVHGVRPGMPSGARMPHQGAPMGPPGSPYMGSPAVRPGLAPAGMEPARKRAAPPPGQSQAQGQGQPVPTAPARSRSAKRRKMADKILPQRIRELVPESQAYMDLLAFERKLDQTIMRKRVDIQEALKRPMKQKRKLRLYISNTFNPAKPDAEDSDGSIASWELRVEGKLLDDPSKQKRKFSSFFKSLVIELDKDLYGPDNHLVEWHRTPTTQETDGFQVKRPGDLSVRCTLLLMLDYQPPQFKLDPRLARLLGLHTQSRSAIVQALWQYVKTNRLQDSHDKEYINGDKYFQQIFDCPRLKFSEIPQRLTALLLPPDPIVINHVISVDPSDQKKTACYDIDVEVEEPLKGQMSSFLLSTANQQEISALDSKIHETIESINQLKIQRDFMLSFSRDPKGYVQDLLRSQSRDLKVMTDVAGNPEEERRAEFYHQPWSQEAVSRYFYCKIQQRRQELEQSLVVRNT
UniProt Q3TKT4: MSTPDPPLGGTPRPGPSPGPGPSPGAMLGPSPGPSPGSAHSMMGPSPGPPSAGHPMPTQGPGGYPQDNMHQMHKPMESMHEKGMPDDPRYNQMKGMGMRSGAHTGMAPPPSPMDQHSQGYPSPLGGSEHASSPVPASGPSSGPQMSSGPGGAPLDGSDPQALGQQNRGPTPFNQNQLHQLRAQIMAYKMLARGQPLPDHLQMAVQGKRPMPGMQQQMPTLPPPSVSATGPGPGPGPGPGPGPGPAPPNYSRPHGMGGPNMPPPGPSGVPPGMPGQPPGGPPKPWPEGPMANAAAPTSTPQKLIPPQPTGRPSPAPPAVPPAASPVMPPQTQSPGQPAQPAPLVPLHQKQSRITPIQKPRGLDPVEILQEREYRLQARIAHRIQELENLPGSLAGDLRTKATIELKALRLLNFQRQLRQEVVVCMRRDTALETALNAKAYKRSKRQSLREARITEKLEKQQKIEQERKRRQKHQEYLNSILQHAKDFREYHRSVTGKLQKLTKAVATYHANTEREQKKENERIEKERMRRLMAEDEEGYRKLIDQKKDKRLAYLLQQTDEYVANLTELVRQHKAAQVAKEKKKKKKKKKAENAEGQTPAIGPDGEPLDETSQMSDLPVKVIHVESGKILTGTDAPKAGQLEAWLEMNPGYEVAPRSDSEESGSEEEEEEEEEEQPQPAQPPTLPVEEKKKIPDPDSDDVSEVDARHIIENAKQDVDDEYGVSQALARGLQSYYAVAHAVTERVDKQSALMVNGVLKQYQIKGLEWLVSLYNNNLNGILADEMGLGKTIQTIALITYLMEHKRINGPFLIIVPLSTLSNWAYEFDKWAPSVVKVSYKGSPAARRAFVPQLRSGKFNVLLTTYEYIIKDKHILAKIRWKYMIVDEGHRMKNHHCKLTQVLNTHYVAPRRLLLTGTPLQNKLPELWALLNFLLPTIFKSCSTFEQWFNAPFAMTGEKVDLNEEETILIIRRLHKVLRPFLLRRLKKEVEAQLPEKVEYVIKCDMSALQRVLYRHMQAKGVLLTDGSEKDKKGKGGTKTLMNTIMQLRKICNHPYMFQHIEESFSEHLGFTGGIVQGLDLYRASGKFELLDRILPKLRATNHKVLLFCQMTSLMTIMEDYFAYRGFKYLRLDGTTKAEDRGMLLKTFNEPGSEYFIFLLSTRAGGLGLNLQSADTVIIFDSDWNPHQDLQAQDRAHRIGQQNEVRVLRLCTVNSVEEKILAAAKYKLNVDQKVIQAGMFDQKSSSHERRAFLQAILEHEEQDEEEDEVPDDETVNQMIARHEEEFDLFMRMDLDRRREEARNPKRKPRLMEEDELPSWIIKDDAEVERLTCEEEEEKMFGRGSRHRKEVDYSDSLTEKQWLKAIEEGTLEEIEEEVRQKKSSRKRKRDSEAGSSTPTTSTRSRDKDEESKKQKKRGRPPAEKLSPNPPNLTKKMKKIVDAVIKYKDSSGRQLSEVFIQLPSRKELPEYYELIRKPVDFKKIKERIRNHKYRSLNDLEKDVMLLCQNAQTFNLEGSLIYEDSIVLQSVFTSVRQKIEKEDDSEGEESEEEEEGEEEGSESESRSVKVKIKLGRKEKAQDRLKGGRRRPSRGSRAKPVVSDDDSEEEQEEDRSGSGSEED

Molecular target: MyoD (myogenic differentiation) (mouse (endogenous in C2C12)) (UniProt P10085)
Test: co-IP; anti-MyoD antibody immunoprecipitation from lysates (200 ug protein) of differentiating C2C12 cells stably overexpressing Linc-RAM or shRNA targeting Linc-RAM, and control cells; western blot for Baf60c and Brg1

| binding | Substance |
| --- | --- |
| binds | BAF60c (SMARCD3) (from UniProt Q6P9Z1 1-483) |
| binds | Brg1 (from UniProt Q3TKT4 1-1613) |
